Source: PubChem BioAssay AID493014 (National Center for Advancing Translational Sciences (NCATS), 2011)
The other results are listed elsewhere or left out. The main result of the screen is listed elsewhere. These columns were measured beside it and carry no call. Most of these compounds were active or inconclusive in the main read-out, so they are no random draw. The note in brackets gives the kind of curve behind each potency; many fits are weak.

Assay: qHTS Assay to Find Inhibitors of Chronic Active B-Cell Receptor Signaling
Settings: ABC-DLBCL IkBa-CBG/CBR reporter, luminescence ratio (green luciferase fused to IkBa over red control in TMD8 lymphoma cells), 4 h
Outline: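 TMD8 human ABC-DLBCL cells with doxycycline-inducible IκBα–green luciferase fusion and unfused red luciferase, in 0.5% FBS medium; compounds up to 46 uM, 4 h at 37C. Green/red luminescence ratio, filter-overlap corrected, fitted to concentration-response curves.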

[1] = measured here: CBR red luminescence, cell number
[2] = measured here: IkBa-CBG green luminescence

SMILES | AC50 [1] | AC50 [2]
Cc1c(NS(=O)(=O)c2ccc(N=NN(C)C)cc2)c(=O)n(-c2ccccc2)n1C | 22.4 µM [rising, partial curve, poor fit] | 
COc1cccc(Nc2nc(N)c([N+](=O)[O-])c(NCc3ccco3)n2)c1 | 6.31 µM [rising, single point] | 
CC1CCN(C(=O)c2ccc(S(=O)(=O)Cc3cc(F)ccc3F)c([N+](=O)[O-])c2)CC1 | 0.58 µM [falling, full curve, poor fit] | 
CCOC(=O)c1cc(-c2ccccc2)n[nH]1 | 35.5 µM [falling, single point] | 
O=C(CSc1nc(=O)n(Cc2ccco2)c2c1CCC2)NCc1ccccc1Cl | 14.1 µM [falling, single point] | 
CSC(=NNC(=O)c1ccccc1O)SC | 16.4 µM [falling, partial curve] | 
CCOC(=O)/C=C(\C)Sc1cc(=O)oc2ccccc12 | 16.4 µM [falling, partial curve, poor fit] | 
CCCCCNC(=O)c1ccc2c(=O)[nH]c3c(C(=O)NCC4CCCO4)sc(=S)n3c2c1 (configuration not stated) | 18.4 µM [falling, partial curve] | 
Cc1ccc(NC(=O)c2cnccn2)nc1 | 0.501 µM [falling, full curve] | 
COc1ccc(C(=O)OCC(=O)Nc2ccc(Cl)c(C(F)(F)F)c2)c(OC)c1OC | 32.6 µM [falling, single point] | 
O=C(NC(=S)Nc1ccccc1N1CCCC1)c1ccc(F)cc1 | 22.4 µM [falling, single point] | 
CCOc1ccc(CCNC(=O)CN2C(=O)CCSc3ccccc32)cc1 | 1.26 µM [rising, full curve, poor fit] | 
COc1ccc(Cc2nnc(N/N=C/c3ccc(O)cc3)[nH]c2=O)cc1OC | 11.6 µM [falling, partial curve] | 
CCN1C(=O)c2cccc3c(NC(=O)c4ccccc4)ccc1c23 | 20.6 µM [rising, single point] | 
O=c1c(Cl)c(NCCO)cnn1-c1cccc(Cl)c1 | 0.1 µM [rising, full curve, poor fit] | 
COc1cc(C(=O)Nc2ccc(N(C)C)cc2)c([N+](=O)[O-])cc1OC | 3.55 µM [rising, partial curve, poor fit] | 
Clc1ccc(-n2ncc3c(NCc4ccco4)ncnc32)cc1 | 11.2 µM [falling, partial curve, poor fit] | 
CC(NC(=O)CNC(=O)c1ccccc1Br)c1cccs1 (configuration not stated) | 0.13 µM [rising, full curve, poor fit] | 
CCn1cc(/C=N/NC(=O)c2ccc3c(c2)OCO3)c(C)n1 | 4.61 µM [falling, partial curve, poor fit] | 
O=C1c2cc(F)ccc2OC2(CCNCC2)C12CC(c1ccccc1)=NO2 (configuration not stated) | 0.355 µM [falling, full curve, poor fit] | 
COC(=O)c1sccc1NC(=O)c1ccncc1 | 15.8 µM [rising, partial curve] | 
C(/C=C/c1ccco1)=N/N1CCN(c2ccccc2)CC1 | 3.16 µM [rising, full curve, poor fit] | 

SMILES | AC50 [1] | AC50 [2]
Nn1cnnc1SCC(=O)Nc1ccc(C2CCCCC2)cc1 | 0.282 µM [rising, full curve, poor fit] | 
N#CC1=C(N)NC(SCC(=O)Nc2ccccc2)=C(C#N)C12CCCCC2 | 32.6 µM [falling, single point] | 
COc1cc(SC)ccc1C(=O)NCc1ccccc1 | 29.1 µM [falling, single point] | 
Cc1cc(Nc2ccccc2)n(-c2nc3ccccc3[nH]2)n1 |  | 32.6 µM [falling, partial curve, poor fit]
O=C(COc1ccc2ccccc2c1)N1CCNCC1 | 22.4 µM [falling, single point] | 
COc1ccc(CCNc2ncnc3c2c(-c2ccccc2)cn3-c2cccc(Cl)c2)cc1OC | 3.98 µM [rising, single point] | 
CN1CCN(C(=O)CCN2C(=O)/C(=C/c3ccccc3Cl)SC2=S)CC1 | 35.5 µM [falling, partial curve, poor fit] | 
CN(C)c1ccc(C(CNS(=O)(=O)c2ccc(F)c(F)c2)c2c[nH]c3ccccc23)cc1 (configuration not stated) | 23.1 µM [falling, single point] | 25.9 µM [rising, partial curve, poor fit]
COc1cc(C2CC(=O)Oc3c(C(CCN4CCCC(C)C4)c4ccc(N(C)C)cc4)c(OC)cc(OC)c32)cc(OC)c1OC (configuration not stated) | 4.47 µM [falling, full curve, poor fit] | 
O=C(CCS(=O)(=O)c1cccc2nsnc12)NC1CCCCCC1 | 0.0891 µM [falling, full curve, poor fit] | 
CCOC(=O)N1CCC(N(CCOC)C(=O)Nc2ccc(Cl)cc2)CC1 | 3.26 µM [rising, single point] | 
CCOc1ccc(C(=O)NCCC2=CCCCC2)cc1OCC | 10 µM [rising, partial curve] | 
Cc1ccc(C(=O)Nc2c(N)nc(SCC(=O)Nc3cc(C)on3)[nH]c2=O)cc1 | 12.6 µM [falling, partial curve] | 
O=C(O)c1cccc(CN2C(=O)S/C(=C/c3ccccc3[N+](=O)[O-])C2=O)c1 | 15.8 µM [falling, single point] | 
CC(=O)c1ccc(OCCOc2ccc(Cl)c3cccnc23)cc1 | 1.41 µM [rising, partial curve] | 
O=[N+]([O-])c1cccc(-c2cc(-c3cc(Br)ccc3O)[nH]n2)c1 | 0.158 µM [rising, full curve] | 
CSCCC(NS(=O)(=O)c1ccc(C)cc1)C(=O)N1CCN(S(=O)(=O)c2ccc(F)cc2)CC1 (configuration not stated) | 1.16 µM [falling, partial curve, poor fit] | 
Cc1ccc(C)c(N2CCN(C(=O)c3ccc(CS(=O)(=O)c4ccccc4C)o3)CC2)c1 | 29.1 µM [falling, single point] | 
C=C(C)COc1ccc(-c2n[nH]c(C)c2Oc2ccccc2OC)c(O)c1 | 2.24 µM [rising, single point] | 
C/C(=N\NC(=S)NC(C)C)c1ccccc1 | 8.91 µM [rising, partial curve, poor fit] | 22.4 µM [falling, single point]
Cc1nn(CCCC(=O)Nc2sc3c(c2C#N)CCC3)c(C)c1[N+](=O)[O-] | 5.01 µM [rising, partial curve, poor fit] | 
O=C(N/C(=N\O)c1ccccc1)Nc1ccc(Cl)cc1 | 29.1 µM [rising, single point] | 

Record cards (already shown):
O=[N+]([O-])c1cccc(-c2cc(-c3cc(Br)ccc3O)[nH]n2)c1 is entered as AC50 [1]: 0.158 µM [rising, full curve]
O=C(N/C(=N\O)c1ccccc1)Nc1ccc(Cl)cc1 is entered as AC50 [1]: 29.1 µM [rising, single point]
CSCCC(NS(=O)(=O)c1ccc(C)cc1)C(=O)N1CCN(S(=O)(=O)c2ccc(F)cc2)CC1 (configuration not stated) is entered as AC50 [1]: 1.16 µM [falling, partial curve, poor fit]
O=C(O)c1cccc(CN2C(=O)S/C(=C/c3ccccc3[N+](=O)[O-])C2=O)c1 is entered as AC50 [1]: 15.8 µM [falling, single point]

Next part:

SMILES | AC50 [1] | AC50 [2]
O=C(CCC1CCCN(C(=O)c2ccc3cc[nH]c3c2)C1)NCc1ccc(F)c(F)c1 (configuration not stated) | 2.51 µM [rising, full curve, poor fit] | 
Cc1ccc(C(=O)COC(=O)CCN2C(=O)C3C4CC(C(Br)C4Br)C3C2=O)cc1 (configuration not stated) | 29.1 µM [rising, partial curve, poor fit] | 
Cc1[nH]c2ccc(C(=O)OCCN(C)C)cc2c1C | 6.51 µM [rising, single point] | 
C=C(C)C(=O)Nc1ccc(NC(C)C)cc1 | 35.5 µM [rising, single point] | 
COc1cccc(NC(=O)COC(=O)c2c(C)nn(-c3ccccc3)c2C)c1 | 7.31 µM [falling, partial curve] | 
NCCOc1ccc(C2CCCCC2)cc1 |  | 3.55 µM [rising, partial curve, poor fit]
COc1cccc(NC(=O)C2CC(=O)N(C)C(=Nc3cccc(F)c3)S2)c1 (configuration not stated) | 22.4 µM [falling, single point] | 
O=C(Nc1ccc2oc(-c3ccncc3)nc2c1)c1c(F)c(F)c(F)c(F)c1F | 0.058 µM [rising, full curve, poor fit] | 
O=C(N/N=C1\CCCc2c1[nH]c1ccc(Cl)cc21)c1ccncc1 | 11.2 µM [falling, partial curve] | 
COc1ccc2nc(C)cc(N/N=C/c3ccccc3)c2c1 | 1.3 µM [falling, full curve] | 
NCC(O)(c1ccc(Cl)cc1)c1ccc(Cl)cc1 | 22.4 µM [falling, partial curve] | 
COc1ccc(NC(=O)CC(C)c2ccccc2)c([N+](=O)[O-])c1 (configuration not stated) | 2.91 µM [rising, full curve, poor fit] | 
Cc1ccc(-n2nc3ccc(NC(=O)C(C)C)cc3n2)cc1 | 0.501 µM [rising, full curve, poor fit] | 
CN(Cc1ccccc1)C(=O)COC(=O)/C=C/c1ccco1 | 20 µM [falling, partial curve, poor fit] | 
COc1ccc(C2NN=C(c3ccc(C)cc3)S2)cc1OC (configuration not stated) | 35.5 µM [falling, single point] | 
O=S(=O)(c1ccccc1)N(Cc1ccccn1)Cc1ccccn1 | 12.6 µM [rising, partial curve, poor fit] | 
CSc1ccc(/C=C/c2ccc3cccc(O)c3n2)cc1 | 0.562 µM [falling, full curve, poor fit] | 
O=C(NC1CCOc2ccccc21)c1ccccn1 (configuration not stated) | 22.4 µM [falling, single point] | 
CCNC(=S)NNc1ccccc1 | 35.5 µM [falling, single point] | 15.8 µM [falling, partial curve]
CCn1c(-c2cc(OC)c(OC)c(OC)c2)n[nH]c1=S | 25.9 µM [rising, single point] | 
